PubChem BioAssay AID1224826 – NIAID | 2016
Test: 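Genes that change LPS-induced Tnf promoter activity in mouse macrophages when knocked down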 (primary screen). Cell system: RAW264.7 G9 macrophages from mouse bearing reporters for p65 (GFP) and the Tnf promoter (mCherry). Reagents: siRNA pool against mouse genes, 100 nM. Time to read-out: 16 h of LPS stimulation, after 2 days of siRNA transfection. Challenge: bacterial lipopolysaccharide (Salmonella minnesota R595), 10 ng/ml. Measurement: 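Nuclear mCherry signal of the Tnf promoter reporter measured by imaging after background removal, scaled to each plate median and turned into robust z-scores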. Scale: Tnf reporter robust z-score: higher = stronger Tnf promoter reporter signal after LPS. Hit rule: 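a well counts as active at a score of -1.3 or below (Tlr4 knock-down control median) or above 3 (raised signal); controls and wells holding fewer than 50 cells are excluded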. Calls: active = Tnf reporter clearly lowered or raised; inactive = no clear change in Tnf reporter.
Shown is an unselected part of about 17,000 reagents. Of all reagents, about 1,110 (6.6%) are marked active. 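Active means lowered or raised reporter signal; replicate intensities are raw and not normalised per plate.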 Not all columns of the deposit are shown. Reagent sequences are not shown.

For Abcb10 (GeneID 56199), how do the results read?
Tnf reporter robust z-score: -0.99; fewer than 50 cells in well: enough cells in well; outcome: inactive

What did the screen give for Hpd (GeneID 15445)?
Tnf reporter robust z-score: -0.76; fewer than 50 cells in well: enough cells in well; outcome: inactive

With Aldh1a7 (GeneID 26358), what does the deposit list?
Tnf reporter robust z-score: -0.32; fewer than 50 cells in well: enough cells in well; outcome: inactive

With Tdo2 (GeneID 56720), what was measured?
Tnf reporter robust z-score: -0.12; fewer than 50 cells in well: enough cells in well; outcome: inactive

With Mlph (GeneID 171531), what does the deposit list?
Tnf reporter robust z-score: 2.01; fewer than 50 cells in well: enough cells in well; outcome: inactive

Which result is listed for Rfx2 (GeneID 19725)?
Tnf reporter robust z-score: -0.68; fewer than 50 cells in well: enough cells in well; outcome: inactive

Which result is listed for A030003K21Rik (GeneID 77913)?
fewer than 50 cells in well: fewer than 50 cells per well; well left out of calls; outcome: inactive

In a second layout: entries from further up
{"gene": "Mlph (GeneID 171531)", "Tnf reporter robust z-score": 2.01, "fewer than 50 cells in well": "enough cells in well", "outcome": "inactive"}
{"gene": "Rfx2 (GeneID 19725)", "Tnf reporter robust z-score": -0.68, "fewer than 50 cells in well": "enough cells in well", "outcome": "inactive"}

Further results follow.
With Fam243 (GeneID 75328), what does the deposit list?
fewer than 50 cells in well: fewer than 50 cells per well; well left out of calls; outcome: inactive

For Mettl28 (GeneID 72658), how do the results read?
Tnf reporter robust z-score: 0.61; fewer than 50 cells in well: enough cells in well; outcome: inactive

For Foxd1 (GeneID 15229), what does the deposit list?
Tnf reporter robust z-score: 0.27; fewer than 50 cells in well: enough cells in well; outcome: inactive

With Slc2a6 (GeneID 227659), what was measured?
fewer than 50 cells in well: fewer than 50 cells per well; well left out of calls; outcome: inactive

How did the screen score Cplx4 (GeneID 225644)?
Tnf reporter robust z-score: -0.93; fewer than 50 cells in well: enough cells in well; outcome: inactive
